Assay results published in the supplement of paper PMC8728848.
Some of the results follow.

Legend:
Assay in all cases: glycan array binding signal (z-score within array); higher = stronger binding
Conditions in all cases: glycan notation: IUPAC condensed, linker removed
Neu5Ac(a2-8)Neu5Ac = molecular target: Neu5Ac(a2-8)Neu5Ac
Outline: (§1)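 The binding signal is a Z-score computed within each array. Data were drawn from 3228 arrays in the Consortium for Functional Glycomics database, restricted to those with a known protein sequence. Scores were averaged over arrays of the same protein sequence at different concentrations or buffers, and over linkers, and negative values can be taken as non-binding.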

[1] = molecular target: Neu5Ac(a2-8)Neu5Ac(a2-3)Gal(b1-4)Glc
Outline: as §1

[2] = molecular target: Neu5Ac(a2-8)Neu5Ac(a2-3)[GalNAc(b1-4)]Gal(b1-4)Glc
Outline: as §1

[3] = molecular target: Neu5Ac(a2-8)Neu5Ac(a2-8)Neu5Ac
Outline: as §1

[4] = molecular target: Neu5Ac(a2-8)Neu5Ac(a2-8)Neu5Ac(a2-3)Gal(b1-4)Glc
Outline: as §1

[5] = molecular target: Neu5Ac(a2-8)Neu5Ac(a2-8)Neu5Ac(a2-3)[GalNAc(b1-4)]Gal(b1-4)Glc
Outline: as §1

[6] = molecular target: Neu5Ac(a2-8)Neu5Ac(a2-8)Neu5Ac(a2-8)Neu5Ac(a2-3)[GalNAc(b1-4)]Gal(b1-4)Glc
Outline: as §1

[7] = molecular target: Neu5Ac(b2-6)Gal(b1-4)GlcNAc
Outline: as §1

Neu5Ac(b2-6)GalNAc = molecular target: Neu5Ac(b2-6)GalNAc
Outline: as §1

[8] = molecular target: Neu5Ac9Ac(a2-3)Gal(b1-3)GlcNAc
Outline: as §1

[9] = molecular target: Neu5Ac9Ac(a2-3)Gal(b1-4)GlcNAc
Outline: as §1

[10] = molecular target: Neu5Ac9Ac(a2-6)Gal(b1-4)GlcNAc
Outline: as §1

[11] = molecular target: Neu5Gc(a2-3)Gal(b1-3)GlcNAc
Outline: as §1

[12] = molecular target: Neu5Gc(a2-3)Gal(b1-3)[Fuc(a1-4)]GlcNAc
Outline: as §1

Neu5Gc(a2-3)Gal(b1-4)Glc = molecular target: Neu5Gc(a2-3)Gal(b1-4)Glc
Outline: as §1

[13] = molecular target: Neu5Gc(a2-3)Gal(b1-4)GlcNAc
Outline: as §1

[14] = molecular target: Neu5Gc(a2-3)Gal(b1-4)[Fuc(a1-3)]GlcNAc
Outline: as §1

[15] = molecular target: Neu5Gc(a2-6)Gal(b1-4)GlcNAc
Outline: as §1

Neu5Gc(a2-6)GalNAc = molecular target: Neu5Gc(a2-6)GalNAc
Outline: as §1

[16] = molecular target: Neu5Gc(b2-6)Gal(b1-4)GlcNAc
Outline: as §1

B1: PEB3 (Campylobacter jejuni), Q0PBL7 (protein)
chain: MKKIITLFGACALAFSMANADVNLYGPGGPHTALKDIANKYSEKTGVKVNVNFGPQATWFEKAKKDADILFGASDQSALAIASDFGKDFNVSKIKPLYFREAIILTQKGNPLKIKGLKDLANKKVRIVVPEGAGKSNTSGTGVWEDMIGRTQDIKTIQNFRNNIVAFVPNSGSARKLFAQDQADAWITWIDWSKSNPDIGTAVAIEKDLVVYRTFNVIAKEGASKETQDFIAYLSSKEAKEIFKKYGWRE
In the case of B1, the “glycan array binding signal (z-score)” value (Neu5Ac(a2-8)Neu5Ac) is reported as -0.068, the “glycan array binding signal (z-score)” value [1] is reported as 0.455 and the “glycan array binding signal (z-score)” value [2] is reported as -0.206. The “glycan array binding signal (z-score)” value [3] was -0.561, the “glycan array binding signal (z-score)” value [4] was -0.199 and the “glycan array binding signal (z-score)” value [5] was 0.3. The “glycan array binding signal (z-score)” value [6] was -0.3, the “glycan array binding signal (z-score)” value [7] was 0.531 and the “glycan array binding signal (z-score)” value (Neu5Ac(b2-6)GalNAc) was -0.278. The “glycan array binding signal (z-score)” value [8] was -0.317, the “glycan array binding signal (z-score)” value [9] was 0.586 and the “glycan array binding signal (z-score)” value [10] was -1.36. The “glycan array binding signal (z-score)” value [11] was -0.134, the “glycan array binding signal (z-score)” value [12] was -0.09 and the “glycan array binding signal (z-score)” value (Neu5Gc(a2-3)Gal(b1-4)Glc) was -0.736. The “glycan array binding signal (z-score)” value [13] was -0.701, the “glycan array binding signal (z-score)” value [14] was -1.07 and the “glycan array binding signal (z-score)” value [15] was 0.649. The “glycan array binding signal (z-score)” value (Neu5Gc(a2-6)GalNAc) was -0.1 and the “glycan array binding signal (z-score)” value [16] was 0.27.
